From PubChem BioAssay AID1487 (National Center for Advancing Translational Sciences (NCATS), 2009)
Some of the results follow. These are further read-outs of the screen, such as a control signal, another cell line or another target. No call is given for them. The list favours compounds with an active or inconclusive main result. Potencies come from curve fits of mixed quality, noted in brackets.

Assay: qHTS Assay for Modulators of Lamin A Splicing
Conditions: HeLa LMNA splicing GFP/RFP minigene ratio, 48 h
Summary of the method: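 Read-out is the ratio of GFP to DsRed2 object intensity, acquired by 488 nm laser-scanning cytometry on HeLa lamin A-EGFP minigene reporter cells. Compound incubation 48 hrs at 37 °C in Opti-MEM with 2% FBS; DMSO 0.5% final.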

[1] = measured here: GFP splicing reporter channel
[2] = measured here: RFP viability control channel

## O=C(NO)C1CC2C=CC1C2 (stereo not given)
[1]
  AC50: 8.91 µM [falling, partial curve]

## C[C@@H]1C[C@H](Nc2ccccc2)c2ccccc2N1C(=O)c1cccnc1
[1]
  AC50: 0.398 µM [rising, full curve, poor fit]
[2]
  AC50: 11.2 µM [rising, partial curve, poor fit]

## Oc1ccc(Cl)cc1C=Nc1ccc2c3c(cccc13)CC2
[2]
  AC50: 0.794 µM [rising, full curve, poor fit]

## O=C1OCCN1C(=O)[C@H]1[C@H](c2ccc([N+](=O)[O-])cc2)C(c2cccc(Cl)c2)=NN1c1ccccc1
[2]
  AC50: 12.6 µM [rising, partial curve, poor fit]

## CC(CCC(=O)Nc1nncs1)C(=O)O (stereo not given)
[2]
  AC50: 6.31 µM [rising, full curve, poor fit]

## O=[N+]([O-])c1ccccc1/C=N\N1CCN(c2ccccc2)CC1
[1]
  AC50: 0.0355 µM [falling, full curve, poor fit]
[2]
  AC50: 0.0224 µM [falling, full curve, poor fit]

## Nc1nnc(SCC(=O)Nc2sc3c(c2C(=O)c2ccccc2)CCCC3)s1
[2]
  AC50: 14.1 µM [rising, single point]

## C=CCn1c(SC)nc2sc3c(c2c1=O)CCc1ccccc1-3
[1]
  AC50: 14.1 µM [rising, single point]
[2]
  AC50: 22.4 µM [rising, partial curve]

## COc1ccc(N(Cc2nnc3n2CCCCC3)C(=O)Nc2ccccc2)cc1
[1]
  AC50: 5.01 µM [rising, partial curve, poor fit]
[2]
  AC50: 4.47 µM [rising, single point]

## Cc1cc(C)c2nc(N(Cc3cccnc3)C(=O)CCS(=O)(=O)c3ccccc3)sc2c1
[1]
  AC50: 1.58 µM [falling, partial curve]
[2]
  AC50: 12.6 µM [falling, partial curve]

## S=c1[nH]nc(-c2cccs2)n1Cc1ccccc1
[1]
  AC50: 11.2 µM [rising, partial curve]

## Cc1cccc(-c2cc(C(=O)NCc3ccccn3)c3ccccc3n2)c1
[2]
  AC50: 35.5 µM [rising, single point]

## CCOC(=O)c1c(NC(=O)CS(=O)(=O)c2cn(CC)c3ccccc23)sc2c1CCCCC2
[1]
  AC50: 11.2 µM [rising, single point]
[2]
  AC50: 14.1 µM [rising, single point]

## CCOC(=O)C1=C(C)NC2=C(C(=O)c3ccccc32)C1c1ccc(O)cc1 (stereo not given)
[1]
  AC50: 31.6 µM [rising, single point]
[2]
  AC50: 35.5 µM [rising, single point]

## CCn1cc(C(=O)NCCCOC)c(=O)c2cc(S(=O)(=O)N(C)C)ccc21
[2]
  AC50: 35.5 µM [rising, single point]

## CCCCc1ccc(NC(=S)NCc2ccccc2OC)cc1
[1]
  AC50: 0.794 µM [falling, partial curve, poor fit]
[2]
  AC50: 1.26 µM [falling, partial curve]

## CCN(CC)S(=O)(=O)c1ccc(Cl)c(NC(=O)COC(=O)c2c(C)noc2C)c1
[1]
  AC50: 25.1 µM [rising, single point]
[2]
  AC50: 31.6 µM [rising, single point]

## COc1ccc(C2C(=O)N(C3CCCCC3)CC(=O)N2CCc2ccc(C)cc2)cc1OC (stereo not given)
[1]
  AC50: 15.8 µM [falling, partial curve]
[2]
  AC50: 12.6 µM [falling, partial curve, poor fit]

## NC(CS)C(=O)O (stereo not given)
[1]
  AC50: 3.55 µM [falling, partial curve, poor fit]
[2]
  AC50: 2.82 µM [falling, single point]

## Clc1ccc(OCCCCN2CCc3ccccc3C2)cc1
[1]
  AC50: 0.891 µM [falling, partial curve]

## COc1ccc(C(C#N)c2ccc(Cl)nn2)cc1 (stereo not given)
[2]
  AC50: 1.26 µM [falling, single point]

## Cc1ccc2cc(CCNC(=O)c3ccc4c(c3)OCO4)c(=O)[nH]c2c1C
[1]
  AC50: 11.2 µM [rising, partial curve, poor fit]
[2]
  AC50: 12.6 µM [rising, partial curve, poor fit]

## Cn1c(=O)c(C(=O)CCl)c(N)n(CC2CC2)c1=O
[2]
  AC50: 8.91 µM [rising, partial curve, poor fit]

## Cc1ccccc1NC(=S)Nc1ccc(Br)cc1
[2]
  AC50: 10 µM [rising, partial curve]

## Cc1ccc(-n2nnnc2SCc2nnc(-c3ccccc3Br)o2)c(C)c1
[2]
  AC50: 17.8 µM [rising, partial curve]

## CCCCNC(=S)N(C)N=C1CCC(c2ccccc2)CC1 (stereo not given)
[2]
  AC50: 35.5 µM [rising, single point]

## Cc1cccc(CSCCNC(=O)Nc2ccccc2)c1
[2]
  AC50: 17.8 µM [rising, single point]

## COc1ccc(/C=C/C(=O)CC(O)(c2ccccc2)C(F)(F)F)cc1 (stereo not given)
[1]
  AC50: 35.5 µM [falling, single point]
[2]
  AC50: 22.4 µM [falling, single point]

## O=C(O)c1cc2c(s1)-c1ccccc1CC2
[2]
  AC50: 35.5 µM [rising, single point]

## COc1ccc(OC)c(C2SCCN2S(=O)(=O)c2cccc(C(F)(F)F)c2)c1 (stereo not given)
[2]
  AC50: 35.5 µM [rising, single point]

## CCN1CCN(C(c2cccc(F)c2)c2c(O)cc(C)n(CCOC)c2=O)CC1 (stereo not given)
[2]
  AC50: 5.62 µM [rising, single point]

## CC(=O)NS(=O)(=O)c1ccc(NC(=S)NC(=O)COc2ccccc2C)cc1
[2]
  AC50: 10 µM [rising, partial curve]

## CCOC(=O)c1c(N)n(-c2ccccc2CC)c2nc3ccccc3nc12
[1]
  AC50: 15.8 µM [rising, single point]
[2]
  AC50: 31.6 µM [rising, single point]

## CC(C)(CNc1ccc([N+](=O)[O-])cc1C#N)N1CCOCC1
[2]
  AC50: 0.447 µM [rising, full curve, poor fit]

## CC(C)C(=O)Nc1ccc2nc(SCC(=O)N3CCOCC3)sc2c1
[1]
  AC50: 0.398 µM [rising, full curve]
[2]
  AC50: 0.562 µM [rising, full curve, poor fit]
